Tests used:
[1] = [Mn2O3{Me3tacn}2](PF6)2-catalyzed epoxidation of cyclohexene with H2O2 in the presence of stabilizer, GC analysis
Method: (§1) 27.7 mg (0.035 mmol) of [Mn2O3{Me3tacn}2](PF6)2, 2.95 g (35.9 mmol) of cyclohexene, 1.79 g (17.5 mmol) of methyl pyruvate (MP) or 2.10 g (17.5 mmol) of GMHA and 5.14 g (35.0 mmol) of 1,3-dichlorobenzene were dissolved in 40 ml of acetonitrile. The resulting solution was cooled in an ice water bath and then 3.0 ml (52.5 mmol) of a 50% strength aqueous solution of H2O2 were added to the solution over the course of 3 hours. 15 minutes after the end of the H2O2 addition, the reaction mixture was analyzed by means of GC.
as §1, with “of acetonitrile. 1.4 ml of oxalate buffer (6 mol equivalent of oxalate based on the catalyst) were added to this solution. The resulting” for “of acetonitrile. The resulting”, “H2O2 were then added to” for “H2O2 were added to”
(§2) In variants a)-d), 1,3-dichlorobenzene was present during the reaction as an internal standard. The reaction mixtures were each analyzed with GC (Hewlett Packard 5890 series II; CpSil5CB column (25 m×0.32 mm, dl=1.2 μm). Temperature program: start temp.: 70° C., init. time: 1 min., rate: 7° C./min, final temp.: 250° C.)
as §1, with “cyclohexene, 1.05” for “cyclohexene, 1.79”, “g (8.75” for “g (17.5 mmol) of methyl pyruvate (MP) or 2.10 g (17.5”, “acetonitrile. 1.4 ml of oxalate buffer (6 mol equivalent of oxalate based on the catalyst) were added to this solution.” for “acetonitrile.”, “of 6” for “of 3”
as §2, with “Examples 4 and 5,” for “variants a)-d),”, “mixtures of Examples 4-6” for “mixtures”, “C.).” for “C.)”

[2] = [Mn2O3{Me3tacn}2](PF6)2-catalyzed epoxidation of styrene with H2O2 in the presence of stabilizer, GC analysis; conditions: Example 5: styrene; 8.75 mmol stabilizer, oxalate buffer; H2O2 added over 6 hours
Method: 27.7 mg (0.035 mmol) of [Mn2O3{Me3tacn}2](PF6)2, 3.74 g (35.9 mmol) of styrene, 1.05 g (8.75 mmol) of GMHA and 5.14 g (35.0 mmol) of 1,3-dichlorobenzene were dissolved in 40 ml of acetonitrile. 1.4 ml of oxalate buffer (6 mol equivalent of oxalate based on the catalyst) were added to this solution. The resulting solution was cooled in an ice water bath and then 3.0 ml (52.5 mmol) of a 50% strength aqueous solution of H2O2 were added to the solution over the course of 6 hours. 15 minutes after the end of the H2O2 addition, the reaction mixture was analyzed by means of GC.
as §2, with “Examples 4 and 5,” for “variants a)-d),”, “mixtures of Examples 4-6” for “mixtures”, “C.).” for “C.)”

[3] = [Mn2O3{Me3tacn}2](PF6)2-catalyzed oxidation of benzyl alcohol with H2O2 in the presence of stabilizer; conditions: Example 6: 17.5 mmol stabilizer in t-butanol, H2O2 added over 4 hours
Method: 18.4 mg (0.023 mmol) of [Mn2O3{Me3tacn}2](PF6)2, 2.52 g (23.3 mmol) of benzyl alcohol and 2.10 g (17.5 mmol) of GMHA were dissolved in 40 ml of t-butanol. The resulting solution was cooled to room temperature in an ice water bath, and then 4.0 ml (70.3 mmol) of a 50% strength aqueous solution of H2O2 were added to the solution over the course of 4 hours.
The reaction mixture was diluted with 100 ml of diethyl ether, and the organic phase was extracted with 4×25 ml of water. 50 ml of an aqueous 0.5M NaOH solution were then added. Following the removal of the organic phase, the aqueous phase was extracted with 2×25 ml of diethyl ether. 100 ml of diethyl ether were then added, followed by 50 ml of aqueous 0.5M HCl solution. The organic phase was separated off and dried over sodium sulfate. Following removal of the solvent under reduced pressure, pure benzoic acid was isolated as a pale yellow solid.

[4] = Example 4: 8.75 mmol stabilizer, oxalate buffer, H2O2 added over 6 hours
[5] = variant c: 17.5 mmol stabilizer, without oxalate buffer, H2O2 added over 3 hours
[6] = variant d: 17.5 mmol stabilizer and oxalate buffer, H2O2 added over 3 hours

COC(=O)C(O)OC (centres unmarked) [GMHA, glyoxylic methyl ester methyl hemiacetal]
Conversion [1, 4]: 100% | Selectivity [1, 4]: 81% | Yield [1, 4]: 81% | Conversion [1, 5]: 94% | Selectivity [1, 5]: 64% | Yield [1, 5]: 60% | Conversion [1, 6]: 100% | Selectivity [1, 6]: 76% | Yield [1, 6]: 76% | Conversion [2]: 88% | Selectivity [2]: 78% | Yield [2]: 69% | Yield of isolated benzoic acid [3]: 87% | conversion of the benzyl alcohol ([3]; GC): quantitative conversion

COC(=O)C(C)=O [methyl pyruvate]
Conversion [1, 5]: 31% | Selectivity [1, 5]: 45% | Yield [1, 5]: 14% | Conversion [1, 6]: 100% | Selectivity [1, 6]: 68% | Yield [1, 6]: 68%
